Reference: the supplement of paper PMC6411743
± gives the standard deviation of the averaged measurements. This is one part of the list.

Sequences of proteins named here, by UniProt entry; tags and fusion partners are left off. A change or cut given only in a name is not applied to a line headed by its entry.
UniProt Q66K64, whole entry: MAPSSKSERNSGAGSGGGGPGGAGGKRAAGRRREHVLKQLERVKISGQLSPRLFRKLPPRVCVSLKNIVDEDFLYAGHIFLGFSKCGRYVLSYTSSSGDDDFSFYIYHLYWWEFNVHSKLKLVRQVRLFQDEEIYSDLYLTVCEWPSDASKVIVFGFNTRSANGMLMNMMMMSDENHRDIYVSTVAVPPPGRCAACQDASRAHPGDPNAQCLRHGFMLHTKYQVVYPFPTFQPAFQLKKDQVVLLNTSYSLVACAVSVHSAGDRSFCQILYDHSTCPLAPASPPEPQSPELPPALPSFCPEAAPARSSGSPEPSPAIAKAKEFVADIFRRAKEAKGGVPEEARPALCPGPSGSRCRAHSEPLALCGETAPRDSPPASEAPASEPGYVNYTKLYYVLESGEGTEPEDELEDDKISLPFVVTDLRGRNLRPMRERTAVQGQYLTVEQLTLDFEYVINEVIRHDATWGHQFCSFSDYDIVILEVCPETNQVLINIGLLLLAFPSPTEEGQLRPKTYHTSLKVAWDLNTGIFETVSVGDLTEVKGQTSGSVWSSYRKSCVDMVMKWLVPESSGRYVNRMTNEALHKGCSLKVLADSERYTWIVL
UniProt Q86UE8, whole entry, looked up: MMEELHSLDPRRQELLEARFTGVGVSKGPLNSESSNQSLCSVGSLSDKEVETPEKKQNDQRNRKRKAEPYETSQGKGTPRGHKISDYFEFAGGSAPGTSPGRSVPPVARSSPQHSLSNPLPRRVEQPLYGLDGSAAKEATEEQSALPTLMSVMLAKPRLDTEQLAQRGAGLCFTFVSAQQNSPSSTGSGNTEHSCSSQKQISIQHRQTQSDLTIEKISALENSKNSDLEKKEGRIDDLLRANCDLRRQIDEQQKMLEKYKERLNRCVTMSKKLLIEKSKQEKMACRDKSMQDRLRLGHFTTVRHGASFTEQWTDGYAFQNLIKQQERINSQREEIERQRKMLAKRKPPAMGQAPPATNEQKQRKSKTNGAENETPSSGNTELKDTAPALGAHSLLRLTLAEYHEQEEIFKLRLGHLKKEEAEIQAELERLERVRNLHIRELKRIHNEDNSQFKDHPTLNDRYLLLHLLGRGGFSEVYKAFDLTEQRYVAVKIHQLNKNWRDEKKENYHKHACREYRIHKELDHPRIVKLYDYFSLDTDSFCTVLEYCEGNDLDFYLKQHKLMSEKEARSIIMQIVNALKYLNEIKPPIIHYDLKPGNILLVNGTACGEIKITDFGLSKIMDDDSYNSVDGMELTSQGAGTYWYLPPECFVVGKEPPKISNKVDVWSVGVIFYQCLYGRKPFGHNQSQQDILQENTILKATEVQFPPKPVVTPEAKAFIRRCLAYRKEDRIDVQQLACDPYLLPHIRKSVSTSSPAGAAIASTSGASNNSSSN
UniProt Q7L1Q6: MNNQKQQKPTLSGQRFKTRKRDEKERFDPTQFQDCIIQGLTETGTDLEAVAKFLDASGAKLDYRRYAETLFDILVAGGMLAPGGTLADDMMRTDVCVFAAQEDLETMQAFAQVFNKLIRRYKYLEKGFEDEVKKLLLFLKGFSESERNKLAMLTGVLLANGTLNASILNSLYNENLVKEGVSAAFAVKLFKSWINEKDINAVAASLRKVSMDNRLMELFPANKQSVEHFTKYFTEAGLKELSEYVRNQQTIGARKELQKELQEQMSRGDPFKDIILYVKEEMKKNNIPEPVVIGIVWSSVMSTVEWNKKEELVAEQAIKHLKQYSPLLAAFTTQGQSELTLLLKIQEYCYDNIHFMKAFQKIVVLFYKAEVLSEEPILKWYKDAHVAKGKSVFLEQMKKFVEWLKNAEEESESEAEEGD
UniProt Q6KCM7: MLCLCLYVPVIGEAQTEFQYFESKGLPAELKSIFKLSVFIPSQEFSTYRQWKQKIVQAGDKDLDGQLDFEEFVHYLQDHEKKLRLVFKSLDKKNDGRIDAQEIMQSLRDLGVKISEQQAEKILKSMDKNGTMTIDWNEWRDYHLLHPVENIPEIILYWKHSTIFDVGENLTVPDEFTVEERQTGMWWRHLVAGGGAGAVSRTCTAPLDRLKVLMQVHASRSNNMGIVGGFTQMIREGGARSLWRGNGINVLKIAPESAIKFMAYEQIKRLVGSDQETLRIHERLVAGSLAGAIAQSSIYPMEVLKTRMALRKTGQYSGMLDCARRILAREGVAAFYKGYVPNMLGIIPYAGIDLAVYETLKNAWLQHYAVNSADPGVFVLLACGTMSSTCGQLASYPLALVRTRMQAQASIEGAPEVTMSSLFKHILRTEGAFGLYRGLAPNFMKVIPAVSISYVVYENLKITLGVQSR
UniProt Q7Z6V5: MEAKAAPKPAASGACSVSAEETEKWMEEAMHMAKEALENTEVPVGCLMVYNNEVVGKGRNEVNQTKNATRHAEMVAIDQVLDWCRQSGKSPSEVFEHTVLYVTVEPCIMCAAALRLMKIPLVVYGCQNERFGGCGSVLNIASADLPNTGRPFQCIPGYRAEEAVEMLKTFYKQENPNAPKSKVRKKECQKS
UniProt Q7L273: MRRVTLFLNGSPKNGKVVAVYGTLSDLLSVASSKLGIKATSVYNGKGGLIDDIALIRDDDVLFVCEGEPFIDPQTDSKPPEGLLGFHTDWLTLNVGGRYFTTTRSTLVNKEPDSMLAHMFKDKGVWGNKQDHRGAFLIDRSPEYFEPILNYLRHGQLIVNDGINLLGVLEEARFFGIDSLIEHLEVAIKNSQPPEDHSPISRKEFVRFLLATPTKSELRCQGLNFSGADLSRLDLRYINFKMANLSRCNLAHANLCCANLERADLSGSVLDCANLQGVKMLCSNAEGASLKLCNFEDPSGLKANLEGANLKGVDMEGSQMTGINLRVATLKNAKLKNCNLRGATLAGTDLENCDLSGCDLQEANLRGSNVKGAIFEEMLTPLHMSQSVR
UniProt Q5UIP0: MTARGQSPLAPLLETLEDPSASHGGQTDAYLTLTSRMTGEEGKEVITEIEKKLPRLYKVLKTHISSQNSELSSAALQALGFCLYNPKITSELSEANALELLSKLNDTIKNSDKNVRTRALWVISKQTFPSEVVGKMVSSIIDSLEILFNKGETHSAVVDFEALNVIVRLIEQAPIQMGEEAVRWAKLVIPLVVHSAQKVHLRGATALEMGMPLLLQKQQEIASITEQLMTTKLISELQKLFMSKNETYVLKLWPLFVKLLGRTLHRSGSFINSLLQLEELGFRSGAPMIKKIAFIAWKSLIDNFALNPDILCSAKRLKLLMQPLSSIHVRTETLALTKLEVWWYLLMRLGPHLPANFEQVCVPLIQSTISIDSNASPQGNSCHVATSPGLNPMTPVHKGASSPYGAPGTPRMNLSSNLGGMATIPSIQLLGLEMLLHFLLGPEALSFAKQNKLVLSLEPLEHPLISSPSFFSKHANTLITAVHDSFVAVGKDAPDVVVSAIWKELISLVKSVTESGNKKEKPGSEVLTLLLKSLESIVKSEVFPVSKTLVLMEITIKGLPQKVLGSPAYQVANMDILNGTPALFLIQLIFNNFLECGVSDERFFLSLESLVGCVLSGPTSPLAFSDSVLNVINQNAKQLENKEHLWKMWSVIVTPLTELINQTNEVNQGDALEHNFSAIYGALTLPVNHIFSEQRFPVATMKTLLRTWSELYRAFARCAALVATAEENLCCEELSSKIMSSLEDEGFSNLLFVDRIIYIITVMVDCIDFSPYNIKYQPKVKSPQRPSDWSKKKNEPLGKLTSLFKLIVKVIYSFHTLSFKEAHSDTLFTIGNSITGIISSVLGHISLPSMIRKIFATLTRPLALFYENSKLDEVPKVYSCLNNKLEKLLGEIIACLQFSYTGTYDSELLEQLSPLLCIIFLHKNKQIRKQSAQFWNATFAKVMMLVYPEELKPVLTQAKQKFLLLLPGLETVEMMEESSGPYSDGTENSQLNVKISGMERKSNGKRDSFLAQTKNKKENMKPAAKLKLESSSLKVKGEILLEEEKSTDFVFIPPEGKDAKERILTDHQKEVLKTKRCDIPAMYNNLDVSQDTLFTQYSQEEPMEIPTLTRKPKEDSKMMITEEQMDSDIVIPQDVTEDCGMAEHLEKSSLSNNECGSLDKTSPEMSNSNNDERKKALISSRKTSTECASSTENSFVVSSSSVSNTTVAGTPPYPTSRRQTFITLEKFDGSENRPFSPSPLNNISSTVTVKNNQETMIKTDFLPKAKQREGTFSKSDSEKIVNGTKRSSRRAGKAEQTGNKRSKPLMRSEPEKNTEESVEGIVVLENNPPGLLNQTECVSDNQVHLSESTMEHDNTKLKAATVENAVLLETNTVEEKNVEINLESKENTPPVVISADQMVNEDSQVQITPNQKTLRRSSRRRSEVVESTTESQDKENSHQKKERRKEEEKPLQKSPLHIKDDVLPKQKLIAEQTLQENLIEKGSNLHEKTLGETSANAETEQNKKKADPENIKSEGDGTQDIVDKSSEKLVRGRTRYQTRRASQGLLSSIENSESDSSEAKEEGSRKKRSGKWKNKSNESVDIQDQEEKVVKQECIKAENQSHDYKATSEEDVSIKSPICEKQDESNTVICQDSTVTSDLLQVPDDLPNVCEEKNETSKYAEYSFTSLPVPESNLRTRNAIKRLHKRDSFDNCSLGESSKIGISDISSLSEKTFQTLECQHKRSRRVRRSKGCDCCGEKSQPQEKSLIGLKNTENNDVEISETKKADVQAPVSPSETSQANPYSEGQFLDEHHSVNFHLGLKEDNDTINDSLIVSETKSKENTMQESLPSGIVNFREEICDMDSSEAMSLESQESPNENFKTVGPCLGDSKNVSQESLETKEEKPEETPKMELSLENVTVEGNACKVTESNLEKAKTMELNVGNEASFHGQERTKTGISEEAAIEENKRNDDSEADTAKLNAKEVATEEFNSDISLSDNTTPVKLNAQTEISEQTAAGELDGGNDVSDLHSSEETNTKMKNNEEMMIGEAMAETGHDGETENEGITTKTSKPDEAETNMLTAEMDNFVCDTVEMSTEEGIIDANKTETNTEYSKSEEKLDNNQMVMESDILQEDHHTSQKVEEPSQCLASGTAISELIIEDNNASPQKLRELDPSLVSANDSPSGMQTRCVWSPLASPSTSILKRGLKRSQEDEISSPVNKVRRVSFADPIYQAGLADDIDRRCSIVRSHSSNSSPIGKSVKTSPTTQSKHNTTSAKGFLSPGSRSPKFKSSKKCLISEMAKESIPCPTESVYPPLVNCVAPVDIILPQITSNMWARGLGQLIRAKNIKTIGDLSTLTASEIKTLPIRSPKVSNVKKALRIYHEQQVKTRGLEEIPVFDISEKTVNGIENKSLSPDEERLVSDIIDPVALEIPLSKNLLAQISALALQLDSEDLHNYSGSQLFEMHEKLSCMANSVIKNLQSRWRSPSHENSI
UniProt Q86SK9: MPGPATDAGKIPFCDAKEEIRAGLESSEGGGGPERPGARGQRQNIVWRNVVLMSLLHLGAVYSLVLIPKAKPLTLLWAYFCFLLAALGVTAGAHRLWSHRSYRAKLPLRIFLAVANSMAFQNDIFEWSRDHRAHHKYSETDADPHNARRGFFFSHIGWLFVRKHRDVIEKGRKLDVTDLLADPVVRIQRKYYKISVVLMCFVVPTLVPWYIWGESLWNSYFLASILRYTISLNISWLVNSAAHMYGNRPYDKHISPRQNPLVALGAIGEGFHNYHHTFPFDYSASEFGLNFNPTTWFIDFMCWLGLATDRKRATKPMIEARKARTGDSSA
UniProt Q6ZSS7: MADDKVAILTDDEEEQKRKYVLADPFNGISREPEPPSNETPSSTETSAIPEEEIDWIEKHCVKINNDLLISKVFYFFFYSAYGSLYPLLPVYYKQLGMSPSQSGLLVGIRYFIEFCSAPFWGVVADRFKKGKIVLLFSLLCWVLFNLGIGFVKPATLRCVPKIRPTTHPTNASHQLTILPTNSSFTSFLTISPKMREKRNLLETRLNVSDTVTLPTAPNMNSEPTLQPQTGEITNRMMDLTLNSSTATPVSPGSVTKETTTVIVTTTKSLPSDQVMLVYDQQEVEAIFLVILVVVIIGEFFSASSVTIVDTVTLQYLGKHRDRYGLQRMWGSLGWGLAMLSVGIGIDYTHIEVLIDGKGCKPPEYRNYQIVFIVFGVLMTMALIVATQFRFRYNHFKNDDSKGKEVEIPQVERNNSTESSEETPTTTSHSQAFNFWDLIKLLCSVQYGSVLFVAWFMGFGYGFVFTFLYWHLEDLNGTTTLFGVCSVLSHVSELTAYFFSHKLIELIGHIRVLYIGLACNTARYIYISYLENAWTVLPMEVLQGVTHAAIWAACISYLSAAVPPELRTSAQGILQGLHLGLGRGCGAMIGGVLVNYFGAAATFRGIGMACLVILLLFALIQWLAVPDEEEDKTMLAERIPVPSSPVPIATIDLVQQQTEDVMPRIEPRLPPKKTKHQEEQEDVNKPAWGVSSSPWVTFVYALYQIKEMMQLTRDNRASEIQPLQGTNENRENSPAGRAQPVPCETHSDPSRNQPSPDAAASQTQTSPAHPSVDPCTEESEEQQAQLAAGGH

Compound: Nc1nc2c(ncn2[C@@H]2O[C@H](COP(=O)(O)OP(=O)(O)OP(=O)(O)O)[C@@H](O)[C@H]2O)c(=O)[nH]1 [guanosine triphosphate]
Test: NP40-soluble protein abundance relative to vehicle (solubility fold change) (ratio); higher = more soluble protein in presence of GTP
How it was run: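 Crude Jurkat lysate, prepared by Dounce homogenisation, was exposed to eight concentrations from 0.1 to 10 mM for 10 min at room temperature and then 3 min at 37 °C. Solubilisation used 0.8% NP40 with benzonase for 60 min at 4 °C, followed by ultracentrifugation and TMT labelling of the supernatant for LC-MS/MS. After vsn normalisation of intensities, each value is the fold change against the detergent-processed vehicle within each replicate, across three independent experiments.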

Target	NP40-soluble protein abundance (concentration: 0.1mM)	NP40-soluble protein abundance (concentration: 0.5mM)	NP40-soluble protein abundance (concentration: 1mM)	NP40-soluble protein abundance (concentration: 2mM)	NP40-soluble protein abundance (concentration: 4mM)	NP40-soluble protein abundance (concentration: 6mM)	NP40-soluble protein abundance (concentration: 8mM)	NP40-soluble protein abundance (concentration: 10mM)
DCAF15 (UniProt Q66K64)	0.927 ± 0.097	0.82 ± 0.1	0.965 ± 0.02	0.948 ± 0.16	0.851 ± 0.16	0.866 ± 0.12	0.807 ± 0.089	0.891 ± 0.14
UniProt Q86UE8-2|Q86UE8	0.948 ± 0.026	0.974 ± 0.016	0.933 ± 0.011	0.924 ± 0.029	0.889 ± 0.016	0.955 ± 0.041	0.901 ± 0.018	0.914 ± 0.018
UniProt Q5THK1 and related entries	1.14 ± 0.15	1.08 ± 0.18	1.05 ± 0.14	1.05 ± 0.052	1.04 ± 0.13	1.07 ± 0.011	1.03 ± 0.13	1.01 ± 0.18
UniProt Q6WKZ4 and related entries	1.02 ± 0.049	0.951 ± 0.044	0.946 ± 0.05	0.921 ± 0.056	0.933 ± 0.058	0.901 ± 0.022	0.943 ± 0.057	0.89 ± 0.038
UniProt Q7L1Q6 and related entries	0.936 ± 0.038	0.917 ± 0.024	0.92 ± 0.043	0.885 ± 0.044	0.869 ± 0.062	0.864 ± 0.06	0.842 ± 0.077	0.838 ± 0.064
UniProt Q6KCM7 and related entries	1.12 ± 0.041	1.08 ± 0.034	1.06 ± 0.058	1.04 ± 0.016	1.04 ± 0.066	1.019 ± 0.0034	0.982 ± 0.061	0.989 ± 0.098
UniProt Q7Z6V5 and related entries	1.07 ± 0.07	0.963 ± 0.12	1.237 ± 0.008	1.05 ± 0.17	1.16 ± 0.09	1.1 ± 0.016	1.09 ± 0.086	1.23 ± 0.1
KCTD9 (UniProt Q7L273)	0.98 ± 0.1	1.1 ± 0.12	0.962 ± 0.059	0.997 ± 0.031	0.974 ± 0.099	1 ± 0.082	1.02 ± 0.11	1.01 ± 0.052
UniProt Q5UIP0 and related entries	0.993 ± 0.041	1.01 ± 0.042	1.06 ± 0.03	1.05 ± 0.059	1.09 ± 0.067	1.14 ± 0.077	1.21 ± 0.12	1.2 ± 0.17
UniProt Q5VWP2	1.01 ± 0.087	0.986 ± 0.09	0.982 ± 0.11	0.927 ± 0.036	0.979 ± 0.019	0.963 ± 0.025	0.927 ± 0.048	0.8867 ± 0.0049
FBXO46 (UniProt Q6PJ61)	1.06 ± 0.12	1.06 ± 0.08	1.06 ± 0.18	1.06 ± 0.12	1.06 ± 0.17	1.02 ± 0.27	1.09 ± 0.21	1.2 ± 0.29
UniProt Q5VZL5 and related entries	1.04 ± 0.063	1.09 ± 0.051	1.12 ± 0.04	1.2 ± 0.075	1.26 ± 0.076	1.3 ± 0.058	1.43 ± 0.16	1.51 ± 0.14
UniProt Q6VMQ6 and related entries	0.978 ± 0.048	0.974 ± 0.045	1.01 ± 0.082	0.964 ± 0.086	0.982 ± 0.086	0.974 ± 0.091	1 ± 0.032	0.996 ± 0.067
FAM117B (UniProt Q6P1L5)	1.01 ± 0.018	1.02 ± 0.018	1.05 ± 0.079	1.04 ± 0.013	1.03 ± 0.036	1.06 ± 0.056	1.12 ± 0.017	1.11 ± 0.021
UniProt Q86SK9 and related entries	0.9765 ± 0.008	1.01 ± 0.043	0.929 ± 0.065	0.954 ± 0.028	0.914 ± 0.055	0.989 ± 0.055	0.904 ± 0.012	0.924 ± 0.066
UniProt Q6ZSS7 and related entries	0.911 ± 0.11	0.781 ± 0.16	0.922 ± 0.1	0.934 ± 0.015	0.896 ± 0.025	0.948 ± 0.054	0.831 ± 0.16	0.957 ± 0.085

A few values from the results shown:
Under NP40-soluble protein abundance (concentration: 10mM), UniProt Q7L1Q6 and related entries reads 0.838 ± 0.064
Under NP40-soluble protein abundance (concentration: 0.1mM), UniProt Q5VWP2 reads 1.01 ± 0.087
